According to patent US9133259:
No constants are given. Whether binding was seen depends on the method and setting. Some results given as binding are weak or reduced against the parent protein; the word gives no strength.

Protein sequences, listed by entry. Tags and fused reporters are not part of them. Lines headed by an entry give the natural chain unless they say otherwise; changes in a name come on top. Residues count along the entry.
UniProt P49747: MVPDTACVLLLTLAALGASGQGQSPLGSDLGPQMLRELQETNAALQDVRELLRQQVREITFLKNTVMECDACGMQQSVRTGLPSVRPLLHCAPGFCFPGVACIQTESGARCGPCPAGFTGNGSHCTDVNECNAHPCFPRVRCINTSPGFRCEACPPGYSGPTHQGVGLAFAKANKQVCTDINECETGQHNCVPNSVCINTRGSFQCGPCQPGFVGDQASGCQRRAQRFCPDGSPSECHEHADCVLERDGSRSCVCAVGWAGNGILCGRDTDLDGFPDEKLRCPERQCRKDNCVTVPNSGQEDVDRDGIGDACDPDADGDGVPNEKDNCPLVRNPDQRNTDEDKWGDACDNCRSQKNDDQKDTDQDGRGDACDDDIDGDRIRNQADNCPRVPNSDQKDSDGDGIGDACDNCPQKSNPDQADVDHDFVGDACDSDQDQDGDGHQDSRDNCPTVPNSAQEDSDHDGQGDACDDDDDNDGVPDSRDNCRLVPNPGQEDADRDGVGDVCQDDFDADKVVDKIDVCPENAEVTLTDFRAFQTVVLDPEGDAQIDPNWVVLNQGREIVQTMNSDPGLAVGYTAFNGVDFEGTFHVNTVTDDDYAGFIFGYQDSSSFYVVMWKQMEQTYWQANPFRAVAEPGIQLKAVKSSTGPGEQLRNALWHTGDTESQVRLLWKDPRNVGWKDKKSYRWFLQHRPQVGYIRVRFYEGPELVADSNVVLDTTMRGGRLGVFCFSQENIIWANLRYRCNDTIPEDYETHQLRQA
UniProt P01137, residues 279-390: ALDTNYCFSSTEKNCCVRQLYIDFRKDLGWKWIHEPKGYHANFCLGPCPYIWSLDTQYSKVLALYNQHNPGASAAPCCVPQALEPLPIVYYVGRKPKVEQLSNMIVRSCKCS
UniProt P18075, residues 293-431: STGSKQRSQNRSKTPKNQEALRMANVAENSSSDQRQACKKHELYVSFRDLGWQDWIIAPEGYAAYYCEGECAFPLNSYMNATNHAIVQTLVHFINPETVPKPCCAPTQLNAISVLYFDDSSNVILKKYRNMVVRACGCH

Assays:
[1] = molecular target: Recombinant human cartilage oligomeric matrix protein (rhCOMP), full-length, pentamer (human) (UniProt P49747); experiment: negative-stain electron microscopy, gold-labelled TGF-β1
[2] = molecular target: Recombinant human cartilage oligomeric matrix protein (rhCOMP), full-length, pentamer (human) (UniProt P49747); experiment: ELISA, COMP coated at 1 µg/ml
[3] = molecular target: Recombinant human cartilage oligomeric matrix protein (rhCOMP), full-length, pentamer (human) (UniProt P49747); experiment: solid-phase ELISA, soluble TGF-β1 on immobilized COMP
[4] = molecular target: Recombinant human cartilage oligomeric matrix protein (rhCOMP), full-length, pentamer (human) (UniProt P49747); experiment: dual polarization interferometry, COMP(FL) coated on a HisTag chip, pH 7.35, no manganese
[5] = molecular target: Recombinant human cartilage oligomeric matrix protein (rhCOMP), full-length, pentamer (human) (UniProt P49747); experiment: dual polarization interferometry, COMP immobilized on a His-Tag chip, soluble TGF-β1, no manganese
[6] = molecular target: Recombinant human cartilage oligomeric matrix protein (rhCOMP), full-length, pentamer (human) (UniProt P49747); experiment: solid-phase ELISA, soluble BMP-7 on immobilized COMP
[7] = molecular target: Human TGF-β1 (PeproTech, carrier-free) (human) (UniProt P01137); experiment: DPI and solid-phase ELISA
[8] = molecular target: Human TGF-β1 (PeproTech, carrier-free) (human) (UniProt P01137); experiment: solid-phase ELISA, soluble COMP on immobilized TGF-β1, with Ca, Mg, Mn or EDTA
[9] = molecular target: Human TGF-β1 (PeproTech, carrier-free) (human) (UniProt P01137); experiment: solid-phase ELISA, soluble COMP on immobilized TGF-β1
[10] = molecular target: Human TGF-β1 (PeproTech, carrier-free) (human) (UniProt P01137); experiment: solid-phase ELISA, soluble COMP on coated TGF-β1
[11] = molecular target: T1, Human BMP-2 (R&D Systems) (human) (UniProt P12643); experiment: solid-phase ELISA
T1 sequence (looked up): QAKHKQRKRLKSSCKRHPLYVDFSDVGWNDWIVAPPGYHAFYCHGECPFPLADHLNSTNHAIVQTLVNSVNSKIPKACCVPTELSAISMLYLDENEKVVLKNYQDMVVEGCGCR

[12] = molecular target: T1, Human BMP-2 (R&D Systems) (human); experiment: ELISA, BMP-2 coated at 0.5 µg/ml, 16 mM calcium chloride, pH 7.35
[13] = molecular target: Human TGF-β1 (PeproTech, carrier-free) (human) (UniProt P01137); experiment: ELISA, TGF-β1 coated at 1 µg/ml, 16 mM calcium chloride, pH 7.35
[14] = molecular target: Human TGF-β1 (PeproTech, carrier-free) (human) (UniProt P01137); experiment: solid-phase ELISA at pH 6.5 to 7.5
[15] = molecular target: T2, Human BMP-4 (R&D Systems) (human) (UniProt P12644); experiment: solid-phase ELISA, soluble COMP on immobilized growth factor
T2 sequence (looked up): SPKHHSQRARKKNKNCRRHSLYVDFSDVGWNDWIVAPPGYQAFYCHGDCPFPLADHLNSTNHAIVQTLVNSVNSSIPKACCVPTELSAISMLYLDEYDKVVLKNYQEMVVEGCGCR

[16] = molecular target: Human TGF-β1 (PeproTech, carrier-free) (human) (UniProt P01137); experiment: as above
[17] = molecular target: Recombinant human BMP-7 (gift, Stryker Biotech) (human) (UniProt P18075); experiment: as above
[18] = molecular target: T1, Human BMP-2 (R&D Systems) (human); experiment: as above
[19] = molecular target: Recombinant human BMP-7 (gift, Stryker Biotech) (human) (UniProt P18075); experiment: ELISA, BMP-7 coated at 1 µg/ml, 16 mM calcium chloride, pH 7.35
[20] = molecular target: T2, Human BMP-4 (R&D Systems) (human); experiment: ELISA, BMP-4 coated at 0.5 µg/ml, 16 mM calcium chloride, pH 7.35

Measured: binding

Human TGF-β1 (PeproTech, carrier-free) (from UniProt P01137 279-390) (ligand)
binds: [1] | [2] | [3] | [4] | [5]

Recombinant human BMP-7 (gift, Stryker Biotech) (from UniProt P18075 293-431) (ligand)
binds: [6] | [2]

Recombinant human cartilage oligomeric matrix protein (rhCOMP), full-length, pentamer (from UniProt P49747 23-757)
not listed: [1] | [2] | [3] | [4] | [5] | [6]
binds: all other assays above
